We go through 68 molecules from PubChem BioAssay AID662 (National Center for Advancing Translational Sciences (NCATS), 2007).

The list shows a part of the results. These are further read-outs of the screen, such as a control signal, another cell line or another target. No call is given for them. The list favours compounds with an active or inconclusive main result. The note in brackets gives the kind of curve behind each potency; many fits are weak.

This assay can be described thus: Cell signaling CRE-BLA (Fsk stim). Particulars: CHO CRE-bla reporter (cAMP response element driving beta-lactamase), forskolin EC10, beta-lactamase ratio; measured here: 460 nm blue channel. The method, boiled down: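 CHO CRE-bla cells, overnight plating in Opti-MEM with 0.5% dialyzed FBS; cpd titration + EC10 NKH 477, 3 h 37 °C; CCF4 2 h RT; ex 405/em 460 vs 530 ratio → %Activity, AC50.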
Usually AC50 stands for the midpoint of the concentration-response curve, whichever way the signal moves. Take `COc1cc2ccc(=O)oc2c(O)c1O`: the AC50 is 12.6 µM [rising, partial curve].
On to `O=C1CCCN1CCCNc1ncnc2c1[nH]c1ccc(Cl)cc12`, for which the AC50 was 1.26 µM [rising, full curve].
For `CCOC(=O)/C=C1\SCC(=O)N1CC(=O)c1ccc[nH]1`, the AC50 is 5.01 µM [falling, single point].
Then `COc1cc2c(cc1OC)C(COc1ccc3c(C)cc(=O)oc3c1)N(C(=O)c1ccco1)CC2` (stereo not drawn), with 0.794 µM [rising, full curve]; and `O=C(Nc1ccccc1Cl)N1CCN(c2ccccn2)CC1`, with 0.00398 µM [falling, full curve]; and `COc1cc(C2C(C(=O)OC(C)C)=C(C)Nc3ncnn32)cc(OC)c1OC` (stereo not drawn), with 12.6 µM [rising, partial curve].
`O=C1c2cccc3cccc(c23)N1CN1CCN(c2ccccn2)CC1`: the AC50 is 25.1 µM [rising, single point].
Then `CC(C)(O)C#CC#CCN1CCOCC1`, with 25.1 µM [falling, single point].
Consider `Cc1ccccc1-c1nc(N(C)C)c2ccccc2n1`, for which the AC50 is 5.01 µM [rising, full curve].
Then `NC(=O)c1c(NC(=O)CSc2nnc(-c3ccccc3)n2CC2CCCO2)sc2c1CCC2` (stereo not drawn), with 5.01 µM [falling, single point]; and `CC1(C)Cc2c(c(-c3ccccc3)[nH]c(=O)c2C#N)CO1`, with 15.8 µM [rising, partial curve].
With `Cc1cnc(CNc2ncnc3ccc(-c4ccc(N(C)C)cc4)cc23)cn1`, the AC50 is 6.31 µM [rising, partial curve].
Turning to `CCNc1ncc2nc(-c3ccc(F)cc3)c(=O)n(C)c2n1`, the AC50 is 15.8 µM [rising, partial curve].
Regarding `Cc1ccc(S(=O)(=O)c2nc(S(C)(=O)=O)sc2N(C)C)cc1`, the AC50 is 0.158 µM [rising, full curve, poor fit].
Then `CN(C)c1nc2c(c(=O)[nH]c(=O)n2C)n1Cc1ccc(F)cc1`, with 10 µM [rising, partial curve]; and `CCOc1ccc2nc(NC(=O)CN3CCC(n4nnc5cc(F)ccc54)CC3)sc2c1`, with 25.1 µM [falling, single point].
Then `O=S(=O)(Nc1ccc(-c2nc3cccnc3s2)cc1)c1cccs1`, with 3.16 µM [rising, partial curve]; and `O=C(O)CCC(=O)NCCn1c(-c2ccccc2)csc1=Nc1ccccc1`, with 0.0631 µM [falling, full curve].
Then `Cc1ccc2cc(C#N)c(NCCNC(=O)C3CC3)nc2c1C`, with 5.01 µM [rising, partial curve]; and `O=c1[nH]c(Cc2cccs2)nc2ccccc12`, with 0.00316 µM [falling, full curve, poor fit]; and `O=C(CCn1c(=O)[nH]c2ccsc2c1=O)N1CCc2ccccc2C1`, with 0.398 µM [falling, full curve].
As to `CC1CCN(C(=O)C2CCN(C(=O)c3cc4sccc4n3Cc3ccc(F)cc3)CC2)CC1`, the AC50 was 0.0398 µM [rising, full curve, poor fit].
Then `COCCn1c(=O)c(-c2cn(C)c3ccccc23)nc2cnc(Oc3cccc(Cl)c3)nc21`, with 3.16 µM [rising, partial curve]; and `CS(=O)(=O)c1ccc(Cl)c(NC(=O)C2CC(=O)N(Cc3ccccc3)C2)c1` (stereo not drawn), with 0.631 µM [rising, partial curve, poor fit].
As for `CCOC(=O)c1ccc(NC(=O)c2ccc(C)c(S(=O)(=O)N3CCOCC3)c2)cc1`, the AC50 was 0.00316 µM [falling, full curve, poor fit].
Then `CC1CC(C)CN(CCCNC(=O)c2ccc3c(c2)NC(=O)C(N2CCCCC2)S3)C1` (stereo not drawn), with 0.2 µM [falling, partial curve]; and `O=C(c1cccn2c(=O)c3ccc(Cl)cc3nc12)N1CCN(Cc2ccc3c(c2)OCO3)CC1`, with 12.6 µM [rising, partial curve]; and `CC(C)N(Cc1nc(-c2ccccc2)no1)C(=O)c1ccc(Cl)cc1`, with 25.1 µM [falling, single point].
Then `COc1ccc(S(=O)(=O)N2CCc3ccccc32)cc1C(=O)OCc1nnc(-c2ccccc2)o1`, with 0.398 µM [falling, partial curve]; and `CC(C)CCn1c(=S)[nH]c2ncccc2c1=O`, with 0.00316 µM [rising, full curve, poor fit].
Then `CC(=O)C(C)Oc1ccc2c3c(c(=O)oc2c1)CCCC3` (stereo not drawn), with 10 µM [rising, partial curve]; and `CCCn1c(-c2ccc(F)cc2)nc2c(NCC3CCCN3CC)nc(C)nc21` (stereo not drawn), with 10 µM [rising, partial curve].
Regarding `COc1ccccc1CN1CC(C(=O)NCC2CCCO2)CC1=O` (stereo not drawn), the AC50 is 5.01 µM [falling, single point].
Regarding `CCOC(=O)c1sc(NC(=O)c2ccc(Cl)s2)cc1C`, the AC50 is 10 µM [rising, partial curve].
Regarding `CCCC(=O)Nc1cccn(Cc2ccccc2Br)c1=O`, the AC50 is 0.794 µM [falling, partial curve].
Consider `COCCn1c(=O)c(-c2cn(C)c3ccccc23)nc2cnc(Oc3ccc(OC)cc3)nc21`, for which the AC50 is 12.6 µM [rising, partial curve].
Then `Cn1nc(-c2ccc(Cl)cc2)c2cc(C(=O)N3CCOCC3)sc21`, with 5.01 µM [rising, full curve]; and `NC(=O)C1(N2CCCCC2)CCN(C(=O)c2ccccc2)CC1`, with 12.6 µM [rising, partial curve].
Take `CCNC(=O)C1CC(=O)N(CC)C(=Nc2cc(Cl)c(O)c(Cl)c2)S1` (stereo not drawn): the AC50 is 0.1 µM [falling, single point].
As to `COc1cccc(C2/C(=C(/O)c3ccc(F)cc3)C(=O)C(=O)N2CCN(C)C)c1` (stereo not drawn), the AC50 was 0.2 µM [rising, full curve, poor fit].
Then `c1ccc(OCc2nn3c(-c4n[nH]c5c4CCC5)nnc3s2)cc1`, with 15.8 µM [rising, partial curve]; and `Cc1cc(N(C)Cc2ccccc2)nc(-c2ccccc2)n1`, with 5.01 µM [falling, single point].
Regarding `CCn1c(=S)sc2c(=O)n(-c3ccccc3)c(SCC(=O)NCc3ccco3)nc21`, the AC50 is 10 µM [rising, partial curve, poor fit].
On to `O=C(c1ccco1)N1CCN(C(=O)c2cc(-c3ccccn3)nc3ccccc23)CC1`, for which the AC50 is 3.98 µM [falling, single point].
As to `CCOC(=O)c1sc(NC(=O)C2CCCO2)c(C(=O)OCC)c1C` (stereo not drawn), the AC50 is 3.98 µM [rising, full curve, poor fit].
For the molecule `CCn1cc(C(=O)NCc2ccc(C)o2)c2cc(OC)c(OC)cc2c1=O`, the AC50 is 1.58 µM [rising, full curve].
`Cc1ccccc1-c1nccc(-n2ccnc2)n1`: the AC50 was 10 µM [rising, partial curve].
For `CCC(C(=O)O)n1c(C(F)(F)F)nc2ccccc21` (stereo not drawn), the AC50 is 31.6 µM [falling, single point].
Consider `COCc1[nH]nc2c1C(C1C=CCCC1)C(C#N)=C(N)O2` (stereo not drawn), for which the AC50 is 0.01 µM [falling, full curve, poor fit].
Then `CC(C)Cn1c2nc3ccccc3nc2c2c(=O)n(CCN3CCOCC3)cnc21`, with 10 µM [rising, single point]; and `COc1cc2c(cc1OC)-c1cc(NC3CC3)nc(=O)n1CC2`, with 10 µM [rising, partial curve].
Take `Cc1[nH]nc2c1C(c1cn[nH]c1-c1ccc(F)cc1)C(C#N)=C(N)O2` (stereo not drawn): the AC50 was 1.26 µM [falling, full curve].
Then `CN(C)S(=O)(=O)c1ccc(N2CCCC2)c(C(=O)Nc2ccccc2N2CCOCC2)c1`, with 25.1 µM [rising, single point]; and `CCOC(=O)C(C)Sc1nc2c(c(=O)[nH]c(=O)n2C)n1C/C=C(/C)Cl` (stereo not drawn), with 12.6 µM [rising, partial curve]; and `Cn1c(N)c(C(=O)COC(=O)Cc2ccsc2)c(=O)n(C)c1=O`, with 0.126 µM [falling, single point].
Then `COc1cccc2sc(Nc3nc(C)c(C(C)=O)s3)nc12`, with 1.26 µM [rising, partial curve]; and `COCCCNc1oc(COc2ccc(Cl)cc2Cl)nc1C#N`, with 10 µM [rising, single point].
Regarding `CCOC(=O)c1ccc(OCC(=O)c2ccc(O)cc2O)cc1`, the AC50 is 3.16 µM [falling, full curve].
With `CN(C)Cc1ccccc1-c1cc(-n2ccnc2)ncn1`, the AC50 is 3.98 µM [rising, single point].
Then `CCOC(=O)c1ccc(CNC(=O)c2cc3cccc(OC)c3oc2=O)o1`, with 0.00316 µM [falling, full curve, poor fit]; and `Cn1c(=O)n(C)c2cc(NC(=O)c3cc4ccccc4o3)ccc21`, with 10 µM [rising, partial curve].
With `COC(=O)c1cc(COC(=O)c2cccnc2SC)oc1C`, the AC50 was 20 µM [rising, single point].
Then `Cc1cccc(NC(=O)CN(C)S(=O)(=O)c2ccc(Cl)cc2)n1`, with 12.6 µM [rising, single point]; and `Cc1cccc(-c2nsc(SCC(=O)NCc3ccco3)n2)c1`, with 20 µM [falling, single point].
Take `O=C(C1CCN(S(=O)(=O)c2cccc3nsnc23)CC1)N1CCN(c2ccccc2F)CC1`: the AC50 is 25.1 µM [falling, single point].
For `Cc1cccc(CNc2ccnc(-c3cccc(NS(C)(=O)=O)c3)n2)c1`, the AC50 was 5.01 µM [rising, single point].
As to `N#Cc1sc2nc3c(c(-c4cccnc4)c2c1N)CCC3`, the AC50 was 25.1 µM [rising, single point].
For the molecule `CCOC(=O)c1sc(NC(=O)CSc2nncs2)c(C(=O)OCC)c1C`, the AC50 was 2.51 µM [rising, full curve].
